Experimental data reported in patent US7547686B2, “Combretastatin A-3 prodrug” (Arizona Board of Regents, a body corporate of the State of …, priority 2001, dated 2009).
For at least one compound, name, drawing or mass did not settle the structure.

System: NCI 60-cell screen
Assay: NCI 60-cell screen
Assay type: cell-based, human
Details: mean ± SE, read-out: mean-panel GI50

For `COc1ccc(/C=C\c2cc(O)c(OC)c(OC)c2)cc1O` [Compound 2a, Combretastatin A-3], the GI50 was 65.7 nM.
